Publication PMC11729928 (PLOS ONE, 2025)
pIC50: −log10 of the molar value.

Test system: CHO-KI CHOP::luciferase cells
Experiment: CHOP::luciferase assay
Format: cell-based
Details: tunicamycin 3 μg/mL, 6h, read-out: IC50, inhibition of tunicamycin-induced luciferase expression
Experimental: CHO-KI CHOP::luciferase cells (a gift from David Ron, Cambridge University, UK) were cultured in Dulbecco’s modified Eagle medium (DMEM)/F12(Ham) (Gibco) supplemented with 10% fetal bovine serum (Sigma Aldrich), 2 mM L-glutamine (Merck Millipore) and 1% penicillin/streptomycin (Merck Millipore) with 200 μg/mL G418 (Life Technologies). Cells were maintained at 37°C with 5% CO2. Cells were regularly checked for mycoplasma contamination.
Cells were exposed to 3 μg/mL of tunicamycin or vehicle (dimethylsulphoxide, DMSO, Sigma), and treated for 6h with pharmacological compounds at concentrations ranging from 0.1 to 500 μM.
For all treatments the whole culture medium was replaced with fresh medium containing the compounds at the desired final concentrations, with or without addition of tunicamycin; control cells were treated by replacing the culture medium with fresh medium containing the vehicle. At the end of the treatment, cells were processed as follows. […] After 5-min incubation, luciferase activity was measured using the GloMax 96 microplate luminometer (Promega).
TUDCA is a chemical chaperone reported to promote protein folding and alleviate ER stress. […] Thus, we measured the ability of TUDCA to attenuate the luciferase response to tunicamycin in CHOP::luciferase cells. […]

With `O=c1n(CCCN2CCN(c3cccc(Cl)c3)CC2)nc2ccccn12` [Trazodone] the pIC50 was 4.10.
